# Assay results taken from PubChem BioAssay AID1487 (National Center for Advancing Translational Sciences (NCATS), 2009).
# The other results are listed elsewhere or left out. Further columns of the screen follow, without active or inactive calls. Compounds called inactive in the main read-out are mostly missing here. Potencies come from curve fits of mixed quality, noted in brackets.
# Test: qHTS Assay for Modulators of Lamin A Splicing
# Conditions: HeLa LMNA splicing GFP/RFP minigene ratio, 48 h
# Text: NCGC Assay Overview: Hutchinson-Gilford Progeria Syndrome (HGPS) is a pediatric premature aging disease caused by a spontaneous mutation in the lamin A/C (LMNA) gene. The mutation activates a cryptic splice site in the LMNA pre-mRNA which results in production of a pre-lamin A protein that cannot be processed properly. The mutant protein accumulates in the nucleus and negatively affects numerous cellular functions. Correction of the splicing defect in HGPS patient cells using a targeted oligonucleotide (exo11) leads to reversal of the cellular disease phenotypes. To identify small molecule modulators of aberrant LMNA splicing, a homogenous assay was constructed in HeLa cells that used a GFP containing minigene to report on correction of aberrant splicing in lamin A and a RFP (DsRed2) to report on cell viability, uniformity and nonspecific effects on the assay signal. This assay was adapted to laser-scanning microplate cytometry (Acumen, TTP Labtech) where miniaturization of the assay to a 1,536-well plate format was possible. References: Bowen, W. P.; Wylie, P. G. Application of Laser-Scanning Fluorescence Microplate Cytometry in High Content Screening. Assay Drug Dev Technol 2006;4:209-221. Scaffidi P, Misteli T. Reversal of the cellular phenotype in the premature aging disease Hutchinson-Gilford progeria syndrome. Nat.
# NCGC Assay Protocol Summary: Reagents/Controls: Stable clones expressing DsRed2 and lamin A-EGFP were generated by Cell and Molecular Technologies in S3 HeLa cells. HeLa cells were prepared for the assay when they were 70-90% confluent. The cells were counted and resuspended in Opti-MEM I (no phenol red; Gibco), 2% FBS, 1% penicillin/ streptomycin (Gibco) at concentration of 120 cells/uL concentration. The suspension was passed through a Falcon basket filter with pore size 40um (Beckton Dickson). Control titrations: column […] 1536-well plate contained a sixteen point titration (1:2 dilutions) in duplicate of ancitabine (Sigma: A8598) beginning at 40 uM final concentration. Column 2 contained a sixteen point titration (1:2 dilutions) of cycloheximide beginning at 1.4 mM final concentration. Column 3 contained ancitabine at 40 uM and column 4 contained was the vehicle control (0.5% DMSO final concentration). Assay Steps: 5 uL of HeLa cells were plated in Aurora LoBase black clear bottom (cyclic-olefin polymer) 1536-well plates at a final density of 600 cells/well. Controls and library compounds were added with a 1536-well pin array using the Kalypsys pin-tool. The plates were then incubated for 48 hrs in a cell-culture incubator (37 °C; 5% CO2, 98% humidity). Following incubation the plates were read on the Acumen Explorer using the 488 nm laser. Data was collected on objects between 10 and 100 um in size. Cell objects were defined by a 15 um width x 10 um depth filter. The ratio of the total object intensity in PMT1 (500-530 nm emission; GFP) over PMT3 (575-640 nm emission; RFP) was calculated for analysis. Keywords: NIH Roadmap, MLSCN, MLI, MLSMR, qHTS, NCGC, lamin A, Progeria, RNA splicing.
# [1] = measured here: RFP viability control channel
# [2] = measured here: GFP splicing reporter channel
SMILES,AC50 [1],AC50 [2]
Cc1cc(Cl)ccc1OCC(O)CN1C(C)CCCC1C (stereo not given),"35.5 µM [rising, single point]",–
COc1ccc(N(Cc2cc3ccc(C)cc3[nH]c2=O)C(=O)c2ccco2)cc1,"10 µM [rising, partial curve, poor fit]",–
COc1ccc(-n2c(C)cc(C(=O)COC(=O)Cn3cnc4ccccc43)c2C)cc1,"15.8 µM [rising, single point]","12.6 µM [rising, single point]"
COc1cc(OC)c(NC(=O)C(=O)CC(=O)c2ccc(C)cc2C)cc1Cl,–,"39.8 µM [rising, partial curve, poor fit]"
Cc1[nH]c2ccccc2c1SCC(=O)N1CCC(C)CC1,–,"3.98 µM [rising, partial curve, poor fit]"
Cc1ccc(NC(=O)CCC(=O)N2Cc3ccccc3Oc3ncccc32)cc1F,–,"1.41 µM [falling, full curve, poor fit]"
CC(=O)NC(=O)c1ccc(-c2ccc(Cl)cc2)o1,"0.794 µM [falling, partial curve]","5.62 µM [falling, single point]"
COc1cccc(C(=O)NC(c2ccccc2)C2CCCC2)c1 (stereo not given),–,"0.112 µM [rising, single point]"
Cc1nc2ccccn2c1C(=O)N=Nc1c(O)[nH]c2ccccc12,"6.31 µM [falling, partial curve, poor fit]",–
Cc1nc(CSc2ccc(Cl)cc2)cc(N2CC(C)OC(C)C2)n1 (stereo not given),"0.00355 µM [falling, full curve, poor fit]",–
Cc1cccc2sc(NNC(=O)c3ccc(S(=O)(=O)N4CCCC(C)C4)cc3)nc12 (stereo not given),"20 µM [rising, partial curve]","10 µM [rising, single point]"
O=C(O)c1c(CNCc2cccc(F)c2)c2ccccc2n1Cc1ccccc1,–,"0.0282 µM [rising, full curve, poor fit]"
CCOc1ccc(C(=O)Nc2cccc(C)n2)cc1,"20 µM [rising, partial curve, poor fit]",–
COc1ccc(N(CC(=O)NCc2ccc(Cl)cc2)S(=O)(=O)c2ccccc2[N+](=O)[O-])c(OC)c1,–,"3.16 µM [falling, partial curve, poor fit]"
COc1ccc(Nc2cc(C)nc3c(C)c(C)ccc23)cc1,–,"2.51 µM [falling, partial curve, poor fit]"
NS(=O)(=O)c1cc2c(cc1C(F)(F)F)NCNS2(=O)=O,"1 µM [rising, partial curve]",–
CC(=O)c1c(C)[nH]c(C(=O)NCCc2ccccc2)c1C,"35.5 µM [rising, single point]",–
O=C(CNc1cccc(C(F)(F)F)c1)N/N=C/c1cn(-c2ccccc2)nc1-c1ccccc1,–,"0.562 µM [falling, full curve, poor fit]"
O=C(CSc1nccc(-c2cccs2)n1)Nc1ccc(F)c(Cl)c1,"35.5 µM [falling, partial curve, poor fit]",–

# Retrieved by compound from above:
SMILES,AC50 [1],AC50 [2]
CC(=O)c1c(C)[nH]c(C(=O)NCCc2ccccc2)c1C,"35.5 µM [rising, single point]",–
CCOc1ccc(C(=O)Nc2cccc(C)n2)cc1,"20 µM [rising, partial curve, poor fit]",–
COc1ccc(N(Cc2cc3ccc(C)cc3[nH]c2=O)C(=O)c2ccco2)cc1,"10 µM [rising, partial curve, poor fit]",–

# The list continues.

SMILES,AC50 [1],AC50 [2]
COCC(C)NC(=O)CCSc1nc(-c2ccc(OC)cc2)cc(C(F)(F)F)n1 (stereo not given),"17.8 µM [rising, partial curve, poor fit]",–
COc1ccc(/C=N/Nc2nc(Nc3ccccc3)nc(N3CCCC3)n2)cc1,"0.891 µM [rising, partial curve]","0.00316 µM [rising, full curve, poor fit]"
COc1ccccc1N1CCN(C(=O)CSc2n[nH]c(-c3ccccc3Cl)n2)CC1,"17.8 µM [rising, single point]",–
CCC1CN(C(=O)Nc2ccc(Br)cc2F)c2ccccc2S1 (stereo not given),"11.2 µM [rising, single point]",–
O=C(Oc1ccc(Cl)c2cccnc12)c1cccc([N+](=O)[O-])c1,"17.8 µM [rising, single point]",–
COc1ccc(N2C(=O)/C(=C/c3ccc([N+](=O)[O-])cc3)C=C2c2ccccc2)cc1,–,"3.16 µM [falling, single point]"
CC1CCCCC1NC(=O)CN1CCC(O)(c2ccc(F)cc2)CC1 (stereo not given),"35.5 µM [rising, single point]",–
CCOC(=O)/C(N=Nc1c(C)n(C)n(-c2ccccc2)c1=O)=C(\C)O,"1.78 µM [falling, full curve, poor fit]",–
Cc1ccccc1CS(=O)(=O)CCC(=O)NCCN1CCN(c2cccc(Cl)c2)CC1,"11.2 µM [rising, partial curve]","7.94 µM [rising, partial curve]"
COc1cccc(CN(Cc2cccnc2)S(=O)(=O)c2ccc(-n3cnnn3)c(C)c2)c1,"22.4 µM [rising, partial curve, poor fit]",–
Cc1c(C(N)=O)sc2ncn(CC(=O)NCCc3ccccc3)c(=O)c12,"15.8 µM [falling, partial curve]","11.2 µM [falling, partial curve, poor fit]"
NC(=O)c1ccc(NC(=O)COC(=O)c2c3c(nc4ccccc24)/C(=C\c2cccs2)CCC3)cc1,–,"5.62 µM [falling, single point]"
O=C(N/N=C/c1cn(-c2cccs2)nc1-c1ccccc1)c1ccccc1Br,"35.5 µM [rising, single point]",–
CN(C(=O)COC(=O)c1cc(Br)c(Br)s1)C1CCS(=O)(=O)C1 (stereo not given),"31.6 µM [rising, single point]","35.5 µM [rising, single point]"
COc1ccccc1C(=O)Nn1c(-c2cccs2)nc2ccccc2c1=O,"35.5 µM [rising, single point]",–
Cc1cnccc1CN(C)Cc1cn(C)nc1-c1ccc(Oc2ccccc2)cc1,–,"3.55 µM [falling, full curve, poor fit]"
COc1cccc(Cn2c(CNS(=O)(=O)c3ccc(C(C)(C)C)cc3)nc3cccnc32)c1,–,"1.41 µM [falling, partial curve]"
CS(=O)(=O)N(CC(=O)N1CCCC1)c1ccc(OCc2ccccc2)cc1,"35.5 µM [rising, single point]","35.5 µM [rising, single point]"
